Assay results reported in US20230140276A1, “TRICYCLIC COMPOUNDS, PREPARATION METHOD AND MEDICAL USE THEREOF” (HEFEI INSTITUTE OF PHARMACEUTICAL INDUSTRY CO., LTD., priority 2020, published 2023).

Tested on: histamine-induced skin vascular permeability
Assay: Inhibitory effect on histamine-induced vascular permeability in mice
Format: in vivo, ICR mice
Method: Intragastric administration was performed 1 hour before modeling. The model group was given the corresponding solvent. […] 10% sodium sulfide was used to depilate the back of mice (3 cm×3 cm). The mice were injected 1 ug/0.1 mL of histamine phosphate physiological saline solution into the depilation site one hour after the administration, and injected 0.25% Evans Blue solution 4 ml/kg from the tail vein immediately after the injection. After 30 minutes, the mice were dislocated and sacrificed. The blue-stained part of the skin was removed and perforated (diameter 15 mm), cut into pieces and soaked in 1 ml of acetone-saline (7:3) solution. After 24 h, it was centrifuged (3000 r/min, 10 min) to take the supernatant. The absorbance of the sample was measured with an ultraviolet spectrophotometer at a wavelength of 610 nm and a blank zero calibration with acetone-physiological saline solution.

Clc1ccc2c(c1)CCc1cccnc1C2=C1CCNCC1 [Desloratadine, desloratadine, reference compound]
inhibition of histamine-induced skin vascular permeability compared with the model group (5 mg/kg, P<0.01): significantly inhibited | inhibition in vivo at 5 mg/kg (Mus musculus, po, 5 mg/kg intragastric 1 hour before modeling, histamine phosphate 1 ug/0.1 mL, Evans Blue absorbance at 610 nm, read-out: Inhibition rate (%)): 58.5%
